Laboratory results reported in patent US9958416B2, “Analyte detection using magnetic hall effect” (The General Hospital Corporation, priority 2011, dated 2018).
For at least one compound, name, drawing or mass did not settle the structure.

Tested on: A431, human epidermoid carcinoma xenograft tumor
Assay: Monitoring efficacy of drug treatment on xenograft tumors (fine needle aspirates, magnetic cytometer Hall sensor measurement; tumor volume)
Format: in vivo
Settings: A431 xenograft in nu/nu mice

COC1=C2C[C@@H](C)C[C@H](OC)[C@H](O)[C@@H](C)/C=C(\C)[C@H](OC(N)=O)[C@@H](OC)/C=C\C=C(/C)C(=O)NC(=CC1=O)C2=O [geldanamycin]
EGFR expression in tumor cells (50 mg/kg intraperitoneally daily for 6 days, measured days 1, 2, 4, 6 by magnetic cytometer, p<0.05, unchanged in untreated mice): progressive decrease in EGFR expression
tumor growth (50 mg/kg intraperitoneally daily, treated cohort at later time points): suppressed tumor growth
